A short description of the series: general procedure: Fmoc solid-phase peptide synthesis; Rink amide resin (0.4 mmol/g; 0.78 mmol/g); NovaSynTGT alcohol resin (0.26 mmol/g) for c(RGDfK); HOBt/HBTU/DIPEA; HATU/DIPEA. Particulars: conjugation step.

The substance Amidate-Val-Cit-Pab-MMAF displayed a conjugation yield of 19.2%.

The values above are taken from patent publication US11746124B2 (FORSCHUNGSVERBUND BERLIN E.V., priority 2016, dated 2023).
